A short description of this assay: qHTS Assay for Lipid Storage Modulators in Drosophila S3 Cells.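 As to cell number change: cells counted by Cell Tracker Red CMTPX staining in the red channel.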 The note with it: BODIPY lipid droplet fluorescence, 18-24 h; for cell number change: measured here: cell count max response, cells fed with added oleic acid. The method in brief: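 Laser-scanning cytometry quantifies lipid droplet accumulation (500–530 nm total intensity; droplet/cell object ratio) in oleic acid-fed (400 uM added) Drosophila S3 cells treated with a concentration series. 20 uM Triacsin C defined 100% inhibition.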

The mark [1] stands for this setting: measured here: cell number channel AC50, cells fed with added oleic acid.
[2] abbreviates: measured here: lipid fluorescence (Fed channel) AC50, cells fed with added oleic acid.

This is one part of the list. Further columns of the screen follow, without active or inactive calls. Compounds called inactive in the main read-out are mostly missing here. The note in brackets gives the kind of curve behind each potency; many fits are weak.

With `COc1ccc(C(=O)OCC(=O)NC(C)(C)C)cc1[N+](=O)[O-]`, the cell number change was 9.56%.
Usually AC50 stands for the concentration giving half of the maximal activity seen. Read a high AC50 as activity only at high concentration. In the case of `O=C(COC(=O)/C=C/c1ccc(C(F)(F)F)cc1)NC(=O)NCc1ccco1`, the cell number change is -43.8%. Also, the half-maximal activity concentration (AC50) under setting [1] was 29.1 µM [falling, single point]. Besides, the AC50 under setting [2] is 3.66 µM [rising, partial curve, poor fit].
With `CC1(C)Cc2ccccc2C(=NC(Cc2c[nH]c3ccccc23)C(=O)O)N1` (stereo unspecified), the cell number change amounted to 2.89%.
As for `Cc1ccc(S(=O)(=O)N(C)C)cc1NC(=O)c1ccc(OC(F)(F)F)cc1`, the cell number change was -14.1%. Further, under setting [1], the concentration at half-maximal activity (AC50) was 6.51 µM [rising, single point]. For the same molecule, the AC50 under setting [2] was 4.11 µM [falling, full curve, poor fit].
Consider `C=CCn1c(SCc2nc3cc(C(=O)OC)ccc3c(=O)[nH]2)nc2sc(CC)cc2c1=O`, for which the cell number change was found to be 20.8%. Further, the AC50 under setting [2] was 3.66 µM [rising, partial curve, poor fit].
In the case of `COCCn1c(-c2ccsc2)nc2c1c(=O)[nH]c(=O)n2CC(C)C`, the cell number change came out at 83.9%. Moreover, the AC50 under setting [1] is 8.2 µM [rising, partial curve].
For the molecule `CCCCn1c(N)c(N(Cc2ccccc2)C(=O)COc2ccccc2F)c(=O)[nH]c1=O`, the cell number change came out at 10%.
On to `Cc1ccc(SC(C)C(=O)N2CCN(c3ccccc3)CC2)cc1` (stereo unspecified), for which the cell number change is -7.67%.
Take `NNC(=O)CN1C(c2cccc(Cl)c2)=Nc2ccc(Br)cc2C1c1ccccc1` (stereo unspecified): the cell number change came to 5.29%. Further, the half-maximal activity concentration (AC50) under setting [2] was 0.82 µM [rising, full curve, poor fit].
Take `CN(C(=O)c1sc2nc(N3CCCC3)c3c(c2c1N)CC(C)(C)OC3)c1ccccc1`: the cell number change is -11.6%. Also, the AC50 under setting [2] was 6.51 µM [rising, single point].
For `O=C(COC(=O)c1ccccn1)NC12CC3CC(CC(C3)C1)C2`, the cell number change is -23.1%. Further, under setting [2], the AC50 was 29.1 µM [falling, single point].
In the case of `COCCNC(=O)Cc1ccc(F)cc1`, the cell number change came to 84.3%. Also, under setting [1], the AC50 is 0.58 µM [rising, single point]. Further, the AC50 under setting [2] was 29.1 µM [rising, single point].
Regarding `CCOC(=O)C(Cc1ccc(NC(=O)/C(=C/c2ccc(OC(C)=O)cc2)NC(C)=O)cc1)N1C(=O)c2ccccc2C1=O` (stereo unspecified), the cell number change was -19.1%. Also, the AC50 under setting [1] was 2.91 µM [falling, partial curve].
Regarding `Cc1nn(CC(C)C)c(Cl)c1C(=O)N(C)CC(=O)Nc1c(Cl)cccc1Cl`, the cell number change came out at 10.1%. Further, under setting [2], the AC50 was 2.06 µM [falling, single point].
Turning to `COc1cc(CNCc2cccc(OC)c2OC)cc(OC)c1`, the cell number change is -18.2%. Further, the AC50 under setting [2] was 6.51 µM [falling, single point].
Take `COC(=O)c1nc(NC(=O)c2ccccc2Br)n[nH]1`: the cell number change came out at 70.6%.
For `CCc1ccc(CNc2ccc(N3CCN(C(C)=O)CC3)cc2)cc1`, the cell number change amounted to 1.26%. The AC50 under setting [2] was 29.1 µM [rising, single point].
Regarding `CC(=O)N/N=C/C1=CCC2CC1C2(C)C` (stereo unspecified), the cell number change is -12.2%. Under setting [2], the AC50 was 1.03 µM [falling, full curve, poor fit].
Take `COc1ccc(NC(=O)/C(C#N)=C/c2ccc(Sc3nncn3C)c([N+](=O)[O-])c2)cc1`: the cell number change was -29.2%. The AC50 under setting [2] was 22.4 µM [falling, partial curve, poor fit].
For the molecule `CCCOc1nc2c(c(=O)n(C)c(=O)n2C)n1Cc1cccc2ccccc12`, the cell number change is -38.3%. In addition, the AC50 under setting [1] is 16.4 µM [falling, single point].
Turning to `COc1cc(CC(=O)OCC(=O)N2CC(=O)Nc3ccccc32)cc(OC)c1OC`, the cell number change was 10.1%. Moreover, the AC50 under setting [1] was 2.59 µM [rising, single point].
With `COc1ccc(-c2[nH]ncc2N=Nc2ccccc2)cc1`, the cell number change came out at 5.48%. In addition, the AC50 under setting [1] was 0.731 µM [rising, single point]. Under setting [2], the concentration at half-maximal activity (AC50) was 0.651 µM [rising, single point].
Take `COCCN1C(=O)N(c2ccc(Cl)cc2)C(=O)C1CC(=O)Nc1cc(OC)cc(OC)c1` (stereo unspecified): the AC50 under setting [2] is 13 µM [rising, partial curve].
Regarding `Cc1nnc(SCC(=O)N(CC(C)C)C2CCS(=O)(=O)C2)n1N` (stereo unspecified), the cell number change was -8.4%. Further, under setting [2], the AC50 is 1.64 µM [rising, partial curve, poor fit].
For `CCCC(C)C(=O)Nc1ccc(C(N)=O)cc1` (stereo unspecified), the cell number change was -91.9%. In addition, the AC50 under setting [1] was 16.4 µM [falling, partial curve]. In addition, the AC50 under setting [2] is 18.4 µM [falling, partial curve].
Turning to `CCCCn1c(SCC(=O)NNC(=O)c2ccco2)nnc1-c1ccco1`, the cell number change amounted to 17.8%. Also, under setting [1], the AC50 is 3.66 µM [falling, single point].
For `O=C(NCc1ccco1)C1CCCN1C(=O)Nc1ccccc1` (stereo unspecified), the cell number change is -2.73%. Moreover, the AC50 under setting [1] was 0.58 µM [falling, single point].
On to `Cc1cc(OCC(=O)N(C)Cc2ccccc2)ccc1Cl`, for which the cell number change is 2.16%. Further, the AC50 under setting [2] is 7.31 µM [rising, partial curve, poor fit].
Take `COc1ccc(CCNC(=O)CC(C)(C)CC2=NS(=O)(=O)c3ccccc3N2)cc1OC`: the AC50 under setting [2] was 29.1 µM [falling, single point].
Consider `CC(C(=O)O)n1nc2ccccc2n1` (stereo unspecified), for which the cell number change was -5.31%. Further, under setting [2], the AC50 was 0.731 µM [rising, single point].
As to `COc1ccc2nc(NC(=O)Nc3ccccc3OC)sc2c1`, the AC50 under setting [2] is 6.51 µM [falling, partial curve].
Regarding `CC(C)C[C@H]1CN=C(Nc2ccccc2)N1CCc1ccc(F)cc1`, the cell number change was 11.7%. Moreover, the AC50 under setting [1] is 6.51 µM [falling, single point]. For the same molecule, the AC50 under setting [2] was 3.26 µM [falling, single point].
`CCC(C)OC(=O)c1[nH]c2c(c1C)C(=O)CC(c1ccc(N(C)C)cc1)C2` (stereo unspecified): the AC50 under setting [1] is 0.184 µM [rising, full curve, poor fit].
In the case of `O=C(/C=C/c1ccc2c(c1)OCO2)Nc1nc(-c2ccccc2)cs1`, the cell number change is -40.1%. Moreover, the AC50 under setting [1] is 32.6 µM [falling, partial curve].
Turning to `Cc1cc(NS(=O)(=O)c2ccc(NC(=O)CSc3nc4ncc(Cl)cc4[nH]3)cc2)nc(C)n1`, the cell number change is -10.4%. The AC50 under setting [2] was 0.58 µM [falling, full curve].
As for `CCCc1cc(=O)oc2cc(OC(C)C(=O)NCC3CCC(C(=O)O)CC3)ccc12` (stereo unspecified), the cell number change stood at 1.62%.
`COc1cccc2c1C(=O)c1c(O)c3c(c(O)c1C2=O)C[C@](O)(C(C)=O)C[C@H]3O[C@@H]1C[C@@H](N)[C@@H](O)[C@@H](C)O1`: the cell number change was -92.8%. Also, the AC50 under setting [1] is 29.1 µM [falling, single point]. For the same molecule, the AC50 under setting [2] is 3.26 µM [falling, partial curve].

(Values after PubChem BioAssay AID2685 (National Center for Advancing Translational Sciences (NCATS), 2010).)
